Results reported in PMC10482750.
Results are given in words; binding and its absence hold for the method and conditions named. Some binding calls cover weakened binding; strength is not graded here. Sequences can lack the tags named with a protein.

Protein sequences, listed by entry. Tags and fused reporters are not part of them.
UniProt Q9Y113: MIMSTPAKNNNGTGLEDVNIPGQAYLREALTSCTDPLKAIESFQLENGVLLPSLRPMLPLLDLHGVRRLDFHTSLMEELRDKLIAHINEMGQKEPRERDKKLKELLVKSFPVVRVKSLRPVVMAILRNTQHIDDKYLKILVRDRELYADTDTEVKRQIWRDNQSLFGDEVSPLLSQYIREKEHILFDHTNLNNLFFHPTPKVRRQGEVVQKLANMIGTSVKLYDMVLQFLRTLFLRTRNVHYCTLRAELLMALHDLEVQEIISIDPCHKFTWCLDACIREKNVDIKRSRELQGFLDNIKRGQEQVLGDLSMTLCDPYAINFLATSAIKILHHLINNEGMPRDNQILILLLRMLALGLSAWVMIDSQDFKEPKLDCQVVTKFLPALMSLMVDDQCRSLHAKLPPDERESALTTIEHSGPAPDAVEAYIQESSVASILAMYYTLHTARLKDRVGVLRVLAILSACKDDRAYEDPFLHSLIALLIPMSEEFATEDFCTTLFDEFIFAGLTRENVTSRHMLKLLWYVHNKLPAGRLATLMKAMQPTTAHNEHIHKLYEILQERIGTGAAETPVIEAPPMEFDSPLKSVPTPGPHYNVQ

Key:
[1] = biological target: T1, His10-NELF-E (Drosophila) (UniProt P92204); experiment: tandem affinity co-purification; four NELF subunits co-expressed in Sf9; Ni-NTA (His10-NELF-E), then anti-FLAG resin (NELF-D-3x-FLAG); washes up to 500 mM NaCl, 250 mM KCl and 0.4 M KCl
T1 sequence: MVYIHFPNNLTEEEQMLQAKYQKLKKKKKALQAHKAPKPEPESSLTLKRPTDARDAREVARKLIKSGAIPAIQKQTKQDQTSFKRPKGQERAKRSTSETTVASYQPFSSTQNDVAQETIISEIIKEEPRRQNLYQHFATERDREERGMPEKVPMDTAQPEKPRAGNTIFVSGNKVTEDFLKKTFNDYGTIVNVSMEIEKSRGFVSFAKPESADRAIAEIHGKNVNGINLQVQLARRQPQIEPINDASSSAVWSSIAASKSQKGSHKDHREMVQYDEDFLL

[2] = biological target: T2, NELF-D-3x-FLAG (Drosophila) (UniProt Q24134); experiment: as above
T2 sequence: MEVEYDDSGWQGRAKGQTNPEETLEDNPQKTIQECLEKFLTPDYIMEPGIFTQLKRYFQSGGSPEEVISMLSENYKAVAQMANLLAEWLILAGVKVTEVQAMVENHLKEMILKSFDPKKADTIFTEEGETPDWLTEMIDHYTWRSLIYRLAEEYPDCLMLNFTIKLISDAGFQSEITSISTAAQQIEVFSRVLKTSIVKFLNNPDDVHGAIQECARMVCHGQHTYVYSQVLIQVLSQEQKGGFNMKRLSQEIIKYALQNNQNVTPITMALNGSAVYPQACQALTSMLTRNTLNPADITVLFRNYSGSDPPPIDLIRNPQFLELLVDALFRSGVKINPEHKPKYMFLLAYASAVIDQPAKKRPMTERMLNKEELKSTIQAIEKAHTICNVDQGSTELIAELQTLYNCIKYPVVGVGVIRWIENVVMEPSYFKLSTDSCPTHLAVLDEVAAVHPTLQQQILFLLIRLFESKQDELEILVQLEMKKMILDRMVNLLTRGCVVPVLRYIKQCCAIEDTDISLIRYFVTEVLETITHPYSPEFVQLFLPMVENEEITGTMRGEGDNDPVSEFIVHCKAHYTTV

binding [1]: binds
binding [2]: binds
Substance: NELF-B (from UniProt Q9Y113 1-594)
